Data on 6 substances can be found in publication PMC4018362.

The target in experiment [1] is T1, nTRIP6 Dimerization Domain 2 peptide (SPOT membrane).
T1 sequence (peptide): EDELDRLTKKLVH
Kind of experiment: peptide or protein array; peptide SPOT: 15-mers of the nTRIP6 pre-LIM region shifted by 3 residues on a cellulose membrane, incubated overnight at 4°C with 10 µg/ml purified GST-nTRIP6 in blocking buffer (2% milk powder, 5% sucrose in TBS, pH 8.0), detected with an anti-GST antibody; both purified.

Experiment [2] deals with T2, nTRIP6 Dimerization Domain 1 peptide (SPOT membrane).
T2 sequence (peptide): AQPVRGCGPPRRG
Described as above.

In experiment [3] the target is T3, THRAP3 fused to the N-terminal half of YFP (UniProt Q9Y2W1).
T3 sequence: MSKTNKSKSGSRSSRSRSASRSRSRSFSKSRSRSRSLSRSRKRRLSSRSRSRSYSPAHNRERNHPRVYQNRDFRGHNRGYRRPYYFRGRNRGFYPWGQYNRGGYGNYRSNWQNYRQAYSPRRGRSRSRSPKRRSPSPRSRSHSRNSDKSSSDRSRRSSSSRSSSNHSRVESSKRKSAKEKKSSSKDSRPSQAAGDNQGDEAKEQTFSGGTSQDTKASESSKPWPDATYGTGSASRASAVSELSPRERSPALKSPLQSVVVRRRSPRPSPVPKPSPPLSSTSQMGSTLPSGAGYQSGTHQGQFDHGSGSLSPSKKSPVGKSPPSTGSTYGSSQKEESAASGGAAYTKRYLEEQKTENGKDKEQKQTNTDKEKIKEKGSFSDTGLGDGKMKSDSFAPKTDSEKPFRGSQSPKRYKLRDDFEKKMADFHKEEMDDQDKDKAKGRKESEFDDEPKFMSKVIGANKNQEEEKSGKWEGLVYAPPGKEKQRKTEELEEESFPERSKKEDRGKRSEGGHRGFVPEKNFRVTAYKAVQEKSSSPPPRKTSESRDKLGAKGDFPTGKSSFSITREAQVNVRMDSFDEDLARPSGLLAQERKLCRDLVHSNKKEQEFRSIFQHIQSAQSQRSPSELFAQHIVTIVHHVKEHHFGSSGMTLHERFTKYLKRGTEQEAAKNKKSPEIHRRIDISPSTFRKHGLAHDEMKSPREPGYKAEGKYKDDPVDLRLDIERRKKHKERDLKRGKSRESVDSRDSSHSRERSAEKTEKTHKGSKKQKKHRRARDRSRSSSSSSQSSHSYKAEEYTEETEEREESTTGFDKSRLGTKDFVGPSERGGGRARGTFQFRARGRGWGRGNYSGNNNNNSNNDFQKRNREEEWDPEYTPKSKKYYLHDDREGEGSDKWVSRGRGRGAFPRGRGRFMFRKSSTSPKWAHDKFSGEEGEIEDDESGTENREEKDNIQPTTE
Nature of the experiment: split reporter; YFP BiFC (THRAP3-YN with YC fusions of nTRIP6 and its variants) in transfected cells (HEK293 by the legend, HeLa by the text), mCherry-NES as transfection control, confocal imaging.

Experiment [4] addresses T3, THRAP3 fused to the N-terminal half of YFP. Nature of the experiment: split reporter; competition: YFP BiFC of nTRIP6-YC and THRAP3-YN in HEK293 cells with empty vector or increasing amounts of a GR expression vector.

No constants are given. Whether binding was seen depends on the method and setting. A result given as binding can be weak or reduced; the word gives no strength. For some assays here: In cells and extracts the contact can be indirect. For some assays here: Sequences can lack the tags named with a protein.

As to recombinant nTRIP6 fused to GST, the binding result in experiment [1] and in experiment [2] was “binds” in each case.
With “nTRIP6 fused to the C-terminal half of YFP”, the binding result in experiment [3] and in experiment [4] was “binds” each time.
With nTRIP6 LIM domain 2 mutant fused to YC, the binding result in experiment [3] is “binds”.
For the substance “the LIM domains alone fused to YC (domain or fragment)”, the binding result in experiment [3] was “binds”.
Still for that read-out and setting: in the case of nTRIP6 LIM domain 1 mutant fused to YC it was “binds”; in that of nTRIP6 LIM domain 3 mutant fused to YC, “binds”.
